The record followed here is PubChem BioAssay AID1347423 (Functional Genomics Laboratory (NCATS/FGL), 2020).

About 210 (0.4%) of roughly 52,000 sequences were called active.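 How the source made its calls: active means gene whose silencing raises cell survival under the drug, median off-target-corrected z-score across its silencing RNAs 2 or more; inactive means the rest.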 Some of the results follow.

A short description of the assay: Resistance to Poly (ADP-Ribose) Polymerase inhibitor: Gene Identification via Genome-wide siRNA Screen. The conditions noted are these: mouse BRCA2 R2336H ES cells, olaparib, CellTiter-Glo viability; stronger effect = higher value. The essentials: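 Genome-wide siRNA screen (3 siRNAs/gene, 20 nM) in mouse ES cells carrying hypomorphic BRCA2 R2336H; olaparib 500 nM added 48 h post-transfection, CellTiter-Glo viability 72 h later. Normalized to plate-median negative control; MAD z-scores, gene median, seed-adjusted.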
On the technique in general: Cellular ATP, detected with luciferase, serves as a proxy for viable cell number.
As to GGAUUACGAGAACAAAAACTT against Jag1, the z-score is inactive: 0.758.
Next, “GGGAUAAAGAGAGACCCAATT against E030034P13Rik”: inactive: 0.0438.
Then GGCUGAUUAUAUUUUUGGUTT against Ush1g, with inactive: -0.0419; and GCUCAACAGCAGUGACGAUTT against Nras, with inactive: -0.348.
Next, GAGAAUGCUUCAGUGGUGATT against Pcdha9: inactive: 0.71; GCUGUUUGAAGCUGAUACCTT against Fads3: inactive: 0.157; GCAACCAUCGUAGCAGAUCTT against Aaas: inactive: 0.628.
Regarding GCUACAAUCUUUUAGGUCUTT against Tcta, the z-score was inactive: -0.743.
With GCCACAAUUUUACUUGGUATT against Ap4s1, the z-score was inactive: -0.577.
Then GGCUAUCUACAAAAUGGUGTT against Vsnl1, with inactive: -0.64; and GCAGCGAAGAUUUUAAUUCTT against Rerg, with inactive: 0.235; and “GGUAAUUAUGCUGCUUAUGTT against 6820402O20Rik”, with inactive: -0.364.
Next, GGAGACUGGAUUUUUGGUATT against Ccr1l1: inactive: 1.2.
For GGAAGAACUAGAGUCAUAUTT against Eps8l1, the z-score was inactive: 0.403.
Next, GGAUAUCCACAGAAAAGGGTT against Chst8: inactive: 0.564.
With GGGAUCACAAUGAAGAAAUTT against Chgb, the z-score is inactive: -1.54.
Next, GGACACAGACCUUUGUUAATT against P2y5: inactive: 0.354; “GGAACAGCAAACUGAAAACTT against 2200003E03Rik”: inactive: 0.8.
As for GCUCCAAUGAGAUCAUUCUTT against Gemin6, the z-score is inactive: 1.83.
Then “GCACGUUCUUUCAAGAAAGTT against 1110014K08Rik”, with inactive: -0.36; and GGAAUAAAGCUCAUCUACGTT against BC042513, with inactive: 2.79.
Then “GGCUGAGUGGCUCUAUAGUTT against 2810403B08Rik”, with inactive: -0.274; and GGAAGGACUUAAAUGAUGCTT against AB030190, with inactive: -0.908.
Consider GGGAGCUCUAAAAAAAGUGTT against Olfr390, for which the z-score was inactive: 0.0742.
Next, CAAACUGGGUCCCAAUGAATT against Ndufa4: inactive: -2.03; GGGAAGGUAUAAGACCUUUTT against Olfr509: inactive: 0.0817.
Next, GCCUUUAGCUCCAUUCACUTT against Zfyve1: inactive: -0.541; “GGGCAGGACUUUACCUUUATT against 2400003L07Rik”: inactive: -0.0384; “CGGCAAUUUGAGUUGAAAATT against 4930403L05Rik”: inactive: -0.112.
Then GGAAGUUGUCCAAGCAAAUTT against Sesn3, with inactive: 0.643; and GCCUGAAUUUUUGGGCAUATT against Ripk2, with inactive: 0.0964; and GGCAGAACUCAAAUUCUUGTT against AW209491, with inactive: 0.0903.
With CGACCACUUGGUGAUGCUCTT against Chc1, the z-score was inactive: -0.298.
As for “GCCAAAGAUUAUCGAGUGUTT against A630065K24Rik”, the z-score was inactive: 0.783.
Next, CCGAGGAUGCUAUUUAAUCTT against Olfr183: inactive: 0.192; GGAGAGACAGUUGUACACGTT against Oprs1: inactive: -1.2.
Consider GGGACUAUUCCUCCAGAGUTT against Cast, for which the z-score was inactive: 1.19.
Next, GGCAGCCAGUGUGCUAAAATT against Atp6v1h: inactive: 1.18; GGCUAAGGCCACAAAUGUGTT against Tacc3: inactive: -1.69.
Then GGACAUGGUACCACAGGAGTT against Odz4, with inactive: -1.51.
On to GGUAAUUAAUUCAAAGCAGTT against Siat8d, for which the z-score is inactive: 0.631.
Next, ACCUCAGACUCUUCAACUGTT against Olfr112: inactive: -0.162; CGUCAGAUUGACAAGGCACTT against Serpinb7: inactive: -1.24.
Next, “CCAGUAUCACUAAAGCACATT against A030009B12Rik”: inactive: 0.248.
Then GGUAAUUACGACCUAUUGUTT against Aldh7a1, with inactive: 2.
Take GGUCUACUGAUAUAAUCAATT against Kif11: the z-score was inactive: -1.97.
Regarding GGUUGAGAUGUUCCAUAGATT against Gpr77, the z-score is inactive: 1.69.
Next, GCCCAGAGUGUUCAAGUGUTT against Zfp236: inactive: 0.0942.
Take GGAUAUGAUGUCAGACAACTT against Zdhhc13: the z-score is inactive: -0.447.
Next, CCCGACCACGUGUUUAUUGTT against Tnfsf12: inactive: 0.729; “GGAUGAUGAUGGCUUCAUCTT against 2610528J11Rik”: inactive: 1.42; GCUCCUCUAUAUUUGAAAGTT against Cx3cl1: inactive: -0.35.
Next, GGCGACAGCGUAAAAGUACTT against Lyst: inactive: -2.09; “GCCUUCUGUGAGGAUCUUUTT against 3000002B06Rik”: inactive: -1.75; CCAGCCUUCAAUUGUGGUCTT against Scn1b: inactive: 0.712.
Next, “GCGCAUAUGGCUACGUUCATT against C630023L15Rik”: inactive: -2.25; GGACAACUGAACUACCUCGTT against Paqr3: inactive: -2.72; GGAAAGAAGGACAUGUUGCTT against Fbxo2: inactive: 0.535.
As for CGAAAACAGUUAGUUACCATT against Endogl1, the z-score is inactive: 0.128.
“CCUGUGGGACUCAAUGUUGTT against 2310039H08Rik”: the z-score is inactive: -0.898.
Then “CGGGUCUCAGUCUUUCCUATT against 9930023K05Rik”, with inactive: 0.59.
GGGUCUCUGUAUGCAUAUATT against Dbpht1: the z-score was inactive: 0.00114.
Then GGUGCUACAAGUGUACUGATT against Zswim2, with inactive: 0.156.
Next, GGACUGAAUAUCUUCUUUGTT against Rrh: inactive: 0.471; GGAGACCCAAGUGAUUCUGTT against Eral1: inactive: -0.881.
Then GCAUCCUGGCUGCUAUCAUTT against Olfr399, with inactive: -1.94.
